Data: patent US7208140B2, “Trimeric macrocyclic substituted benzene derivatives” (Schering Aktiengesellschaft, priority 2003, dated 2007)

Assay: Phantom studies: relative X-ray attenuation in well-plates under a 17-cm water column
Conditions: 110 kV, equimolar concentrations

Q: With `O=C([O-])CN1CCN(CC(=O)[O-])CCN(CC(=O)NCCNC(=O)c2c(I)c(C(=O)NCCNC(=O)CN3CCN(CC(=O)[O-])CCN(CC(=O)[O-])CCN(CC(=O)[O-])CC3)c(I)c(C(=O)NCCNC(=O)CN3CCN(CC(=O)[O-])CCN(CC(=O)[O-])CCN(CC(=O)[O-])CC3)c2I)CCN(CC(=O)[O-])CC1.[Gd+3].[Gd+3].[Gd+3]` [Example 3F, 2,4,6-Triiodotrimesic acid-N,N,N-tris-(3-aza-4-oxopentane-1,5-diyl-{10-[1,4,7-tris-(carboxylatomethyl)-1,4,7,10-tetrazacyclododecanyl, Gdcomplex]})amide] as the compound, how does the “x-ray absorption relative to gadobutrol” value read?
A: The value was 3.77 ×.

Q: What about the “x-ray absorption relative to iopromide” value of the same compound?
A: Its value is 3.08 ×.
